Read-outs that look alike come from different tables or passages of the source. These are yes or no findings as the source states them, for the method shown. For part of these data: In cells and extracts the contact can be indirect. Some entries that bind do so weakly or less than the wild type.
Columns and labels:
YFP-PHF13 = YFP-PHF13 (UniProt Q86YI8); test: FRET or BRET
YFP-PHF13 Δ7 (150-300) [1] = target: YFP-PHF13 Δ7 (150-300) (UniProt Q86YI8); test: co-IP
YFP-PHF13 Δ7M246A [2] = target: YFP-PHF13 Δ7M246A (UniProt Q86YI8); test: co-IP
YFP-PHF13 Δ7W255A [3] = target: YFP-PHF13 Δ7W255A (UniProt Q86YI8); test: co-IP
YFP-PHF13 Δ7 (150-300) [4] = target: YFP-PHF13 Δ7 (150-300) (UniProt Q86YI8); test: co-IP; remark: listed apart in the source
YFP-PHF13 Δ7M246A [5] = target: YFP-PHF13 Δ7M246A (UniProt Q86YI8); test: co-IP; remark: listed apart in the source
[6] = target: PHF13 (endogenous) (human (endogenous in U2OS)) (UniProt Q86YI8); test: co-IP
YFP-PHF13 Δ7W255A [7] = target: YFP-PHF13 Δ7W255A (UniProt Q86YI8); test: co-IP; remark: listed apart in the source
[8] = target: SMC3 (endogenous cohesin subunit) (human (endogenous in U2OS)) (UniProt Q9UQE7); test: co-IP
Flag-PHF13 (1-300aa) = Flag-PHF13 (1-300aa) (UniProt Q86YI8); test: co-IP
Flag-PHF13_1-150 = Flag-PHF13_1-150 (UniProt Q86YI8); test: co-IP
[9] = target: in vitro translated PHF13 (UniProt Q86YI8); test: SEC
YFP-PHF13 Δ7 (150-300) [10] = target: YFP-PHF13 Δ7 (150-300) (UniProt Q86YI8); test: co-IP; remark: listed apart in the source
YFP-PHF13 Δ7M246A [11] = target: YFP-PHF13 Δ7M246A (UniProt Q86YI8); test: co-IP; remark: listed apart in the source
[12] = target: PHF13 (endogenous) (human (endogenous in U2OS)) (UniProt Q86YI8); test: co-IP; remark: listed apart in the source
YFP-PHF13 Δ7W255A [13] = target: YFP-PHF13 Δ7W255A (UniProt Q86YI8); test: co-IP; remark: listed apart in the source

The chains behind the UniProt entries cited, without tags or fusion partners. Where a name states a change or a piece, a line headed by the entry shows the natural chain unless it says otherwise. Residues count along the entry.
UniProt Q86YI8, whole entry: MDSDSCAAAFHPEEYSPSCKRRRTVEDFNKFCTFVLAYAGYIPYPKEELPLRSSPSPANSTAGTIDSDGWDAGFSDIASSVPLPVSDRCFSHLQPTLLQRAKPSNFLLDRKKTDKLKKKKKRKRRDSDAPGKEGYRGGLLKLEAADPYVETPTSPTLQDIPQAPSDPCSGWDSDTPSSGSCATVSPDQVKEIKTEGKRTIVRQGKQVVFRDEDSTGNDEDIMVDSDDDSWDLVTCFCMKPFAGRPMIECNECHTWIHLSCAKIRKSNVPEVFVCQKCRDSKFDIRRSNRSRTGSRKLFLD
UniProt Q86YI8, 150-300: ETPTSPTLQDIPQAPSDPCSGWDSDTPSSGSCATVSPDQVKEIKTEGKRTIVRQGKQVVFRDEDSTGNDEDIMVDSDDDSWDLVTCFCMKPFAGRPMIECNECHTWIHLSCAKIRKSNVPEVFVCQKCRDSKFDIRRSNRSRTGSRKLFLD
UniProt Q86YI8, 1-150: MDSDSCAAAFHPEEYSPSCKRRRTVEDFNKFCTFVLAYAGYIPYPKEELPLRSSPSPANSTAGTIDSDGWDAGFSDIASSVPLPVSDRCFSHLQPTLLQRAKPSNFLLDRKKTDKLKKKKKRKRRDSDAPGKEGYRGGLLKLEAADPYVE
UniProt Q9UQE7, whole entry: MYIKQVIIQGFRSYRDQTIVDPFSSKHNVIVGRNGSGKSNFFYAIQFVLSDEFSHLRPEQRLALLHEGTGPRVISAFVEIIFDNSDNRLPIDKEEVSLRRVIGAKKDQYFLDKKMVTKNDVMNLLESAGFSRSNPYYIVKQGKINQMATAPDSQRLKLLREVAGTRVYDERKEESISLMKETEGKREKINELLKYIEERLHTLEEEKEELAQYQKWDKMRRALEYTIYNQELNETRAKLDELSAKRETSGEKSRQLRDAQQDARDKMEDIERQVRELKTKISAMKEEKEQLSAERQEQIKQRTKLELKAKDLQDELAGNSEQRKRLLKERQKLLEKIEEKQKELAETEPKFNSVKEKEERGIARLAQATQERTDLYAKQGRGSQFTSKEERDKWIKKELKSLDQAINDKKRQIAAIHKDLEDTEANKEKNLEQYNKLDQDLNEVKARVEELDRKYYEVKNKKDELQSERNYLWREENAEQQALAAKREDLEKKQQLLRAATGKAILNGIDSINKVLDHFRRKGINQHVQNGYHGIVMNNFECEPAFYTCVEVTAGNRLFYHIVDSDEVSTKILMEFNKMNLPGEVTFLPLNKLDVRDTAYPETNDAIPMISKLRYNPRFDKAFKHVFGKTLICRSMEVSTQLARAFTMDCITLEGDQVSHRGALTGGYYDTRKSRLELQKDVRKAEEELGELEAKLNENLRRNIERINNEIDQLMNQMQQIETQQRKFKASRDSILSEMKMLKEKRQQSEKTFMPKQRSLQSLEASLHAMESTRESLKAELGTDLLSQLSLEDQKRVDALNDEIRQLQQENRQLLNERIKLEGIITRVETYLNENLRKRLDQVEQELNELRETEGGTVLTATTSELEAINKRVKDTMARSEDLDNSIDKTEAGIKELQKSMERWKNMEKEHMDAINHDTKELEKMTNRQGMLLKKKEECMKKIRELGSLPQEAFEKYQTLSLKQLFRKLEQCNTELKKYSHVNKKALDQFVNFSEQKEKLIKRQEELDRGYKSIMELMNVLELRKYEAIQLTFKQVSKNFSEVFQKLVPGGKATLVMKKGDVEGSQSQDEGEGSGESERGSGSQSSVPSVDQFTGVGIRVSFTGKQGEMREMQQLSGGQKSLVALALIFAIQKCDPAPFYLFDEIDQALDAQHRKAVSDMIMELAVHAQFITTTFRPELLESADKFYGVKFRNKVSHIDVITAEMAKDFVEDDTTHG

CFP-150-300 (from UniProt Q86YI8 150-300) (domain or fragment)
binding (YFP-PHF13): no binding

SMC3 (endogenous cohesin subunit) (from UniProt Q9UQE7 1-1217)
binding (YFP-PHF13 Δ7 (150-300) [1]): binds | binding (YFP-PHF13 Δ7M246A [2]): binds | binding (YFP-PHF13 Δ7W255A [3]): binds | binding (YFP-PHF13 Δ7 (150-300) [4]): binds | binding (YFP-PHF13 Δ7M246A [5]): binds | binding [6]: binds | binding (YFP-PHF13 Δ7W255A [7]): binds

CFP-PHF13 ΔNTD (from UniProt Q86YI8 1-300)
binding (YFP-PHF13): no binding

PHF13 (endogenous) (from UniProt Q86YI8 1-300)
binding [8]: binds

YFP-PHF13 (from UniProt Q86YI8 1-300)
binding (Flag-PHF13 (1-300aa)): binds

EGFP-PHF13 (from UniProt Q86YI8 1-300)
binding (Flag-PHF13_1-150): binds | binding (Flag-PHF13 (1-300aa)): binds

CFP-PHF13 Δ24-40 (from UniProt Q86YI8 1-300)
binding (YFP-PHF13): no binding

CFP-PHF13 1-150 (the first 150 N-terminal amino acids) (from UniProt Q86YI8 1-150) (domain or fragment)
binding (YFP-PHF13): binds

in vitro translated PHF13 (from UniProt Q86YI8 1-300)
binding [9]: binds

B1: SA2 (endogenous cohesin subunit) (protein, UniProt Q8N3U4 1-1231)
chain: MIAAPEIPTDFNLLQESETHFSSDTDFEDIEGKNQKQGKGKTCKKGKKGPAEKGKGGNGGGKPPSGPNRMNGHHQQNGVENMMLFEVVKMGKSAMQSVVDDWIESYKHDRDIALLDLINFFIQCSGCKGVVTAEMFRHMQNSEIIRKMTEEFDEDSGDYPLTMAGPQWKKFKSSFCEFIGVLVRQCQYSIIYDEYMMDTVISLLTGLSDSQVRAFRHTSTLAAMKLMTALVNVALNLSINMDNTQRQYEAERNKMIGKRANERLELLLQKRKELQENQDEIENMMNAIFKGVFVHRYRDAIAEIRAICIEEIGIWMKMYSDAFLNDSYLKYVGWTMHDKQGEVRLKCLTALQGLYYNKELNSKLELFTSRFKDRIVSMTLDKEYDVAVQAIKLLTLVLQSSEEVLTAEDCENVYHLVYSAHRPVAVAAGEFLYKKLFSRRDPEEDGMMKRRGRQGPNANLVKTLVFFFLESELHEHAAYLVDSMWDCATELLKDWECMNSLLLEEPLSGEEALTDRQESALIEIMLCTIRQAAECHPPVGRGTGKRVLTAKEKKTQLDDRTKITELFAVALPQLLAKYSVDAEKVTNLLQLPQYFDLEIYTTGRLEKHLDALLRQIRNIVEKHTDTDVLEACSKTYHALCNEEFTIFNRVDISRSQLIDELADKFNRLLEDFLQEGEEPDEDDAYQVLSTLKRITAFHNAHDLSKWDLFACNYKLLKTGIENGDMPEQIVIHALQCTHYVILWQLAKITESSSTKEDLLRLKKQMRVFCQICQHYLTNVNTTVKEQAFTILCDILMIFSHQIMSGGRDMLEPLVYTPDSSLQSELLSFILDHVFIEQDDDNNSADGQQEDEASKIEALHKRRNLLAAFCKLIVYTVVEMNTAADIFKQYMKYYNDYGDIIKETMSKTRQIDKIQCAKTLILSLQQLFNEMIQENGYNFDRSSSTFSGIKELARRFALTFGLDQLKTREAIAMLHKDGIEFAFKEPNPQGESHPPLNLAFLDILSEFSSKLLRQDKRTVYVYLEKFMTFQMSLRREDVWLPLMSYRNSLLAGGDDDTMSVISGISSRGSTVRSKKSKPSTGKRKVVEGMQLSLTEESSSSDSMWLSREQTLHTPVMMQTPQLTSTIMREPKRLRPEDSFMSVYPMQTEHHQTPLDYNRRGTSLMEDDEEPIVEDVMMSSEGRIEDLNEGMDFDTMDIDLPPSKNRRERTELKPDFFDPASIMDESVLGVSMF
binding (YFP-PHF13 Δ7 (150-300) [10]): binds | binding (YFP-PHF13 Δ7M246A [11]): binds | binding [12]: binds | binding (YFP-PHF13 Δ7W255A [13]): binds

B2: RAD21 (endogenous cohesin subunit) (protein, UniProt O60216 1-631)
chain: MFYAHFVLSKRGPLAKIWLAAHWDKKLTKAHVFECNLESSVESIISPKVKMALRTSGHLLLGVVRIYHRKAKYLLADCNEAFIKIKMAFRPGVVDLPEENREAAYNAITLPEEFHDFDQPLPDLDDIDVAQQFSLNQSRVEEITMREEVGNISILQENDFGDFGMDDREIMREGSAFEDDDMLVSTTTSNLLLESEQSTSNLNEKINHLEYEDQYKDDNFGEGNDGGILDDKLISNNDGGIFDDPPALSEAGVMLPEQPAHDDMDEDDNVSMGGPDSPDSVDPVEPMPTMTDQTTLVPNEEEAFALEPIDITVKETKAKRKRKLIVDSVKELDSKTIRAQLSDYSDIVTTLDLAPPTKKLMMWKETGGVEKLFSLPAQPLWNNRLLKLFTRCLTPLVPEDLRKRRKGGEADNLDEFLKEFENPEVPREDQQQQHQQRDVIDEPIIEEPSRLQESVMEASRTNIDESAMPPPPPQGVKRKAGQIDPEPVMPPQQVEQMEIPPVELPPEEPPNICQLIPELELLPEKEKEKEKEKEDDEEEEDEDASGGDQDQEERRWNKRTQQMLHGLQRALAKTGAESISLLELCRNTNRKQAAAKFYSFLVLKKQQAIELTQEEPYSDIIATPGPRFHII
binding [12]: binds

— article doi:10.1101/2022.03.04.482956
